Laboratory results reported in patent US20220381657A1, “METHOD FOR PREPARING BIOLOGICAL MATERIAL HAVING EXCELLENT LIGHT-TRANSMITTING PROPERTY” (RIKEN, priority 2016, published 2022).

Legend:
bovine coagulated blood = assay: Decoloring screening: heme eluted from bovine coagulated blood (OD420-OD700); conditions: decolorization; for 700 nm calibrated 420 nm Average: OD420 calibrated by OD700; for integrated value 500-700 nm Average: integrated absorbance 500-700 nm
Protocol: A high-throughput screening system for evaluating the decoloring ability of various compounds was constructed. The screening system involved adding an aqueous solution of each compound to bovine coagulated blood and then measuring the absorbance of heme collected in the supernatant.
Specifically, to bovine blood, an equal amount of 8% PFA solution was added, and reacted at 4° C. overnight. The mixed liquid was centrifuged at 1500×g for 5 minutes, and the supernatant containing PFA was discarded. Then, the same amount of PBS as the original volume of blood was added to prepare a coagulated blood sample. To 150 μL of 10 wt % aqueous solution of each compound, 50 μL of the coagulated blood sample was added, and reacted at 37° C. overnight. The reaction solution was centrifuged at 1500×g for 5 minutes, and then 100 μL of the supernatant was added to a plate so as to be subjected to absorbance measurement. A sample which is suspended in water instead of being dissolved in the water has a weak decoloring effect, but none the less has a high absorbance value. […]

[1] = Refractive index of high-concentration aqueous solution; assay type: physicochemical; conditions: Table 3
Text: The refractive index of an aqueous solution is commonly known to increase in a solute concentration-dependent manner, and the refractive index of a reagent per unit weight of the reagent varies among individual reagents. Accordingly, two properties are required in order to prepare a high refractive index aqueous solution: (1) an extremely high water-solubility and (2) a […] which allows achieving a high refractive index in a low-concentration aqueous solution.

RI ([1]; chemical conc. 70 wt %) | Structure (SMILES) | 700 nm calibrated 420 nm Average (bovine coagulated blood) | integrated value 500-700 nm Average (bovine coagulated blood) | RI ([1]; chemical conc. 75 wt %)
1.4922 | Cc1cccc(N)n1 [#0370, 2-Amino-6-methylpyridine] | 2.66 | 2.57 | –
– | C1CN=C2CCCN2C1 [#0587, 1,5- Diazabicyclo [4.3.0]-5-nonene] | 2.41 | 1.38 | 1.4836
